The chains are these.
B1: il10ra_site1_normal_mot_HHH_b2_00622_af2_000000153_0001_40_57_H_._HHH_b2_05560_0001_0000500016_0000001_0_af2pred_0001 (protein)
chain: SSSSSEEFEELRKELEELLKEVEELGDPRAVRALRILLRAAEELNDPQALRFALHLAKALLSSSS
B2: il10ra_site1_normal_mot_HHH_b2_04680_000000215_0001_1_16_H_._HHH_b1_06063_0001_0000100007_0000001_0_af2pred_0001 (protein)
chain: SSSSSDREERLRRVLELLRKIFESDDPEEREELLEEAERLIEEAGNELLRLQLELLRRAISSSSS
B3: il10ra_site1_normal_mot_HHH_b2_08144_af2_000000046_0001_38_52_H_._HHH_b1_07320_0001_0000500026_0000001_0_af2pred_0001 (protein)
chain: SSSSSSALERIVELLRELAELLQEGDEERIEELEEEIERLIEEANNVLAKFLLESLRRRQSSSSS
B4: il10ra_site1_sap_11_mot_HHH_b2_03450_000000073_0001_38_52_H_._HHH_b1_04135_af2_0001_0000100001_0000001_0_0001 (protein)
chain: SSSSDEARRRIYELSRRVAELDSEGDEEEAEELLEEARELAEEAGDMVFEKVIEHLRRQVSSSSS
B5: il10ra_site1_normal_mot_HHH_b2_06795_000000133_0001_42_56_H_._HHH_b2_07274_0001_0000100009_0000001_0 (protein)
chain: SSSSDEAVHEAAQLFQRFLRITDEEELQEILERIRELAEETNDERIRQSLKFLELLLRARSSSSS
B6: il10ra_site1_normal_mot_HHH_b2_03220_af2_000000223_0001_23_40_H_._HHH_b1_01997_0001_0000200011_0000002_0 (protein)
chain: SSSSSTEENEEIWELLRRALQIPDKEEAERLVEEAIEIAEEANNEVLLIQARFALRAIKLSSSSS
B7: il10ra_site1_normal_mot_HHH_b1_05052_000000015_0001_1_19_H_._HHH_b1_01305_af2_0001_0000100005_0000002_0 (protein)
chain: SSSSDEAFEIAERAIRETIQLLEEGDEEEAEKVLEEALRLLEEAGNQTAAWSVRHLLRLTSSSSS
B8: il10ra_site1_sap_13_mot_HHH_b2_01447_af2_000000258_0001_1_20_H_._HHH_b2_05150_0001_0000300020_0000001_0_0001_af2pred_0001 (protein)
chain: SSSSSEVERLLEEAEEAARRGDEERAYHLLLEAFRLARELGDPELRELVHELAVRIARLTSSSSS
B9: il10ra_site1_sap_14_mot_HHH_b2_00564_af2_000000012_0001_18_34_H_._HHH_b1_01168_0001_0000500034_0000001_0_0001 (protein)
chain: SSSSDEERLRLSLRFAKALERNGDPEAAERILKAALDIARRAGDEELQEEIEELLEKLRGSSSSS
B10: il10ra_site1_sap_10_mot_HHH_b2_03346_af2_000000019_0001_1_18_H_._HHH_b1_04552_af2_0001_0000300037_0000001_0_0001_af2pred_dldesign_0_af2pred (protein)
chain: SRREELTRLLRELGVPERTIHAMTVAIEKGEEAGLPEEEILQRLRATARLHADPRALEAIERLLE
B11: il10ra_site1_normal_mot_HHH_b2_05343_000000235_0001_19_35_H_._HHH_b1_02977_af2_0001_0000600014_0000001_0 (protein)
chain: SSSSDRERVEELLERLEEALENNDSQLAFELIREAIELATKSRDPELQELVQEMIELLLRSSSSS
B12: il10ra_site1_normal_mot_HHH_b1_03333_000000091_0001_1_17_H_._HHH_b2_02982_af2_0001_0000400019_0000001_0 (protein)
chain: SSSSSEIYRKTKEAIERAAQLFREGNEEEAEELLEEVLREVRELGNEALEWSLEHLLRLLSSSSS
B13: il10ra_site1_sap_16_mot_HHH_b1_08281_000000266_0001_42_57_H_._HHH_b2_08339_0001_0000500023_0000002_0_0001_af2pred_dldesign_0_af2pred (protein)
chain: SSSSSPLEKEIEELLREARAAKEAGKLDEARELIARAMLLAAKVNDKKWFDAVMSTYATLFSSSS
B14: il10ra_site1_sap_18_mot_HHH_b1_05860_000000142_0001_1_19_H_._HHH_b2_06678_0001_0000100008_0000002_0_0001 (protein)
chain: SSSSDYEERVEELLEQAEELAERGNPEEAAHALLEAVQLAYEARDAELLRLVWRVVKRLGSSSSS
B15: il10ra_site1_normal_mot_HHH_b1_05056_000000217_0001_1_20_H_._HHH_b2_00098_0001_0000100009_0000001_0 (protein)
chain: SSSSSEVEEEVEELLEEAKQIEDPREAAEVLLRATQIALEGQDPEALRLVWEVVKRLAERSSSSS
B16: il10ra_site1_normal_mot_HHH_b2_00441_000000147_0001_1_18_H_._HHH_b2_03122_0001_0000400042_0000001_0 (protein)
chain: SSSSDQEEQALRSAFESAERALELGDEEYFRLALRFLELLAKSLNDEEAKELVEELKERGSSSSS
B17: il10ra_site1_normal_mot_HHH_b1_06020_000000123_0001_1_18_H_._HHH_b1_06941_0001_0000400020_0000001_0_1_af2pred_0001 (protein)
chain: SSSSSDEEHEEVEELIEELKRIEDEEEFAKVFLEASRLAQRHNNEEAVELVLRAAAKWLRSSSSS
B18: il10ra_site1_sap_15_mot_HHH_b2_05813_000000266_0001_1_19_H_._ems_3hC_1310_0001_af2_0001_0000600040_0000002_0_0001 (protein)
chain: SSSSADEEFEFTREKYEEARELLQNGNPEEAEEVLEEAREYLKEAGNWAALFAVEVLLKQLSSSS
B19: il10ra_site1_sap_28_mot_HHH_b2_06795_000000133_0001_42_56_H_._HHH_b1_08376_0001_0000100010_0000001_0_0001_af2pred_0001 (protein)
chain: SSSSSSDVEHLVKAARELYERGNPEAAKAALRFAKHLAEALNDEELLEEIEKLLEEIRSSSSSSS

The list shows a part of the results.

The assay deals with il10ra, Q13651. The assay is described as follows: yeast display titration.
What is called apparent Kd is a dissociation constant that holds for the conditions of the assay. Take B1: the “apparent Kd” value was “inactive: no binding seen”.

Take B2: the “apparent Kd” value is “inactive: no binding seen”.

As to B3, the “apparent Kd” value was “inactive: no binding seen”.

For B4, the apparent Kd is inactive: > 894 nM.

As to B5, the “apparent Kd” value is “inactive: no binding seen”.

Turning to B6, the “apparent Kd” value was “inactive: no binding seen”.

In the case of B7, the “apparent Kd” value is “inactive: no binding seen”.

On to B8, for which the “apparent Kd” value is “inactive: no binding seen”.

As to B9, the “apparent Kd” value was “inactive: no binding seen”.

Consider B10, for which the “apparent Kd” value is “inactive: no binding seen”.

Regarding B11, the “apparent Kd” value is “inactive: no binding seen”.

For B12, the “apparent Kd” value was “inactive: no binding seen”.

Take B13: the “apparent Kd” value is “inactive: no binding seen”.

B14: the “apparent Kd” value was “inactive: no binding seen”.

As for B15, the “apparent Kd” value was “inactive: no binding seen”.

Take B16: the “apparent Kd” value was “inactive: no binding seen”.

As for B17, the “apparent Kd” value was “inactive: no binding seen”.

Consider B18, for which the “apparent Kd” value is “inactive: no binding seen”.

In the case of B19, the “apparent Kd” value was “inactive: no binding seen”.

The record behind these values is paper PMC10163288.
